Measured values taken from PubChem BioAssay AID248 (DTP/NCI, 2004).
The list does not hold the whole screen: it is rich in T/C values a quarter to a half above the control, in often repeated tests (any T/C) and in doses without a T/C. Other doses and runs of a compound stand elsewhere. T/C gives the treated animals as a percentage of the vehicle group. Some doses have a count of surviving animals in place of a T/C: the source files T/C as zero there, which appears to mark a toxic dose or a test without result, not a measured value. Some survivor counts are full or nearly so, which does not show that the dose was tolerated: survival well below the control is almost never listed, so the zero probably covers shortened survival too. Survivors were counted at the toxicity check, usually on the fifth day, unless a day is given; later deaths do not show. Schedules are NCI's codes, taken here to give the interval after Q, in days (D) or hours (H), and the number of doses after X. Some schedule codes hold Z or #, which are not explained here. Some structures stand for samples that the source files as different forms (salt, stereo form or complex); doses refer to the form tested. Some entries hold several experiments; the values are given in rising order. For survival time, this PubChem deposit counts one and a half times the control or more as active, and values a quarter to a half above the control carry no call in these data; other NCI protocols may use other cut-offs. Some T/C values carry the count of animals alive at the toxicity check (mostly the fifth day); without a count, all were alive then.

Test system: L1210 leukemia ip in BDF1 mice, survival T/C
Assay: NCI In Vivo Anticancer Drug Screen. Data for tumor model L1210 Leukemia (intraperitoneal) in B6D2F1 (BDF1) mice
Conditions: T/C endpoint: mean survival time, higher T/C = longer survival
[1] = dose: 400.0 mg/kg/injection, schedule: Q01DX001 (ip), vehicle: saline
[2] = dose: 100.0 mg/kg/injection, schedule: Q01DX001 (ip), vehicle: other
[3] = dose: 200.0 mg/kg/injection, schedule: Q01DX001 (ip), vehicle: other
[4] = dose: 400.0 mg/kg/injection, schedule: Q01DX001 (ip), vehicle: other
[5] = dose: 100.0 mg/kg/injection, schedule: Q04DX003 (ip), vehicle: saline
[6] = dose: 200.0 mg/kg/injection, schedule: Q04DX003 (ip), vehicle: saline
[7] = dose: 400.0 mg/kg/injection, schedule: Q04DX003 (ip), vehicle: saline
[8] = dose: 300.0 mg/kg/injection, schedule: Q01DX001 (ip), vehicle: other
[9] = dose: 400.0 mg/kg/injection, schedule: Q01DX009 (ip), vehicle: Klucel (hydroxypropylcellulose) (HPC)
[10] = dose: 100.0 mg/kg/injection, schedule: Q01DX009 (ip), vehicle: saline with Tween-80
[11] = dose: 400.0 mg/kg/injection, schedule: Q04DX003 (ip), vehicle: saline with Tween-80
[12] = dose: 400.0 mg/kg/injection, schedule: Q01DX001 (ip), vehicle: carboxymethylcellulose (CMC)
[13] = dose: 200.0 mg/kg/injection, schedule: Q01DX009 (ip), vehicle: saline
[14] = dose: 400.0 mg/kg/injection, schedule: Q01DX009 (ip), vehicle: saline

## CCC(CC)NC(CC)CO (stereo unspecified)
dose: 300.0 mg/kg/injection, schedule: Q01DX001 (ip), vehicle: carboxymethylcellulose (CMC)
  survivor count: 0 of 6

## O/N=C/c1cnccn1
[1]
  survivor count: 2 of 4

## C=COC(=O)CCCCCCC (tested in a mixture with another compound)
dose: 10.0 mg/kg/injection, schedule: Q01DX001 (ip), vehicle: acetone
  T/C: 134 % of control
dose: 15.0 mg/kg/injection, schedule: Q01DX001 (ip), vehicle: acetone
  survivor count: 3 of 6
dose: 100.0 mg/kg/injection, schedule: Q01DX001 (ip), vehicle: acetone
  survivor count: 0 of 4
[2]
  survivor count: 0 of 4
dose: 200.0 mg/kg/injection, schedule: Q01DX001 (ip), vehicle: acetone
  survivor count: 2 of 4
[3]
  survivor count: 0 of 4
dose: 200.0 mg/kg/injection, schedule: Q01DX001 (ip), vehicle: saline
  survivor count: 0 of 4 and 2 of 4
dose: 400.0 mg/kg/injection, schedule: Q01DX001 (ip), vehicle: acetone
  survivor count: 0 of 4
[4]
  survivor count: 0 of 4
[1]
  survivor count: 0 of 4

## NCCCCCc1ccccc1
[5]
  survivor count: 3 of 6
[6]
  survivor count: 0 of 6

## O=S(=O)(NO)c1ccc(Cl)cc1
[7]
  survivor count: 5 of 6

## CC(=O)N(C)c1ccc(S(=O)(=O)F)cc1
dose: 400.0 mg/kg/injection, schedule: Q01DX001 (ip), vehicle: Klucel (hydroxypropylcellulose) (HPC)
  survivor count: 0 of 3

## CSc1nnc(-c2ccncc2)s1
[7]
  survivor count: 0 of 6

## COc1ccc(S(=O)(=O)N=[N+]=[N-])cc1
[1]
  survivor count: 3 of 6

## CCC(C)C(C(=O)OCCN(CC)CC)c1ccccc1 (stereo unspecified)
dose: 400.0 mg/kg/injection, schedule: Q04DX003 (ip), vehicle: Klucel (hydroxypropylcellulose) (HPC)
  survivor count: 1 of 6

## COc1cc2c(cc1OC)C13CCN4C=C5CCOC6CC(=O)N2C1C6C5CC43 (stereo unspecified)
dose: 150.0 mg/kg/injection, schedule: Q01DX001 (ip), vehicle: other
  survivor count: 0 of 6
[8]
  survivor count: 0 of 6

## C=CS(=O)(=O)c1ccc(N)cc1
[9]
  survivor count: 0 of 6

## Cc1cc(C)c(OS(=O)(=O)c2ccc([N+](=O)[O-])cc2)c(C)c1
[10]
  survivor count: 6 of 6

## CC(C)OC(=S)SSC(=S)OC(C)C
dose: 400.0 mg/kg/injection, schedule: Q04DX003 (ip), vehicle: other
  survivor count: 3 of 6

## OC(C#Cc1ccccc1)c1ccccc1 (stereo unspecified)
[10]
  survivor count: 3 of 6
[11]
  survivor count: 2 of 6

## NC(N)=N/N=C/c1ccc([N+](=O)[O-])cc1
dose: 120.0 mg/kg/injection, schedule: Q01DX Z (ip), vehicle: saline
  survivor count: 3 of 6
dose: 240.0 mg/kg/injection, schedule: Q01DX Z (oral), vehicle: other
  survivor count: 4 of 6

## N/N=C1\c2ccccc2-c2cc([N+](=O)[O-])ccc21
[12]
  survivor count: 0 of 4

## Fc1ccc(Cc2nnc(Cc3ccc(F)cc3)nn2)cc1
dose: 400.0 mg/kg/injection, schedule: Q04DX002 (ip), vehicle: Klucel (hydroxypropylcellulose) (HPC)
  survivor count: 3 of 3

## CCOP(=O)(NC=S)OCC
dose: 150.0 mg/kg/injection, schedule: Q01DX001 (ip), vehicle: saline
  survivor count: 2 of 6
dose: 300.0 mg/kg/injection, schedule: Q01DX001 (ip), vehicle: saline
  survivor count: 0 of 6

## CC(=O)[C@H]1CC[C@H]2[C@@H]3CCC4=CC(=O)CC[C@]4(C)[C@H]3CC[C@]12C
dose: 125.0 mg/kg/injection, schedule: Q01DX Z (sc), vehicle: steroid suspending solution
  survivor count: 0 of 10
dose: 250.0 mg/kg/injection, schedule: Q01DX Z (sc), vehicle: steroid suspending solution
  survivor count: 0 of 10
dose: 500.0 mg/kg/injection, schedule: Q01DX Z (sc), vehicle: steroid suspending solution
  survivor count: 0 of 10
dose: 1000.0 mg/kg/injection, schedule: Q01DX Z (sc), vehicle: steroid suspending solution
  survivor count: 0 of 10

## COc1ccc(C(=O)c2cccc3c2-c2ccccc2C3(c2ccc(OC)c(C)c2)c2ccc(OC)c(C)c2)cc1C
[2]
  survivor count: 4 of 4
[3]
  survivor count: 4 of 4
[4]
  survivor count: 4 of 4

## CC1CCN(c2ccc([N+](=O)[O-])cc2[N+](=O)[O-])CC1
[9]
  survivor count: 5 of 6

## COc1cc(NS(C)(=O)=O)ccc1Nc1c2ccc([N+](=O)[O-])cc2nc2c(C)c(C)ccc12
dose: 0.72 mg/kg/injection, schedule: Q01DX009 (ip), vehicle: saline
  T/C: 125 % of control
dose: 6.25 mg/kg/injection, schedule: Q01DX009 (ip), vehicle: saline
  T/C: 148 % of control
dose: 50.0 mg/kg/injection, schedule: Q01DX001 (ip), vehicle: water
  T/C: 127 % of control
dose: 50.0 mg/kg/injection, schedule: Q01DX009 (ip), vehicle: saline
  survivor count: 6 of 6
dose: 50.0 mg/kg/injection, schedule: Q01DX009 (ip), vehicle: water
  T/C: 129 % of control
dose: 100.0 mg/kg/injection, schedule: Q01DX001 (ip), vehicle: water
  T/C: 128 % of control
dose: 100.0 mg/kg/injection, schedule: Q01DX009 (ip), vehicle: saline
  survivor count: 5 of 6
dose: 100.0 mg/kg/injection, schedule: Q01DX009 (ip), vehicle: water
  T/C: 135 % of control
dose: 200.0 mg/kg/injection, schedule: Q01DX001 (ip), vehicle: water
  T/C: 133 % of control
[13]
  survivor count: 5 of 6
dose: 200.0 mg/kg/injection, schedule: Q01DX009 (ip), vehicle: water
  T/C: 141 % of control
dose: 400.0 mg/kg/injection, schedule: Q01DX001 (ip), vehicle: water
  T/C: 135 % of control
[14]
  survivor count: 0 of 6

## CC(C)(C)c1cc(Br)c(O)c(C(=O)O)c1
dose: 100.0 mg/kg/injection, schedule: Q01DX001 (ip), vehicle: carboxymethylcellulose (CMC)
  survivor count: 4 of 4
[12]
  survivor count: 2 of 4

## CCCCCCCCCCCCCCCC(=O)Oc1ccc(/C(CC)=C(/CC)c2ccc(OC(=O)CCCCCCCCCCCCCCC)cc2)cc1
[10]
  survivor count: 6 of 6

## CCc1ccncc1
[1]
  survivor count: 1 of 4

## Oc1ccccc1C=NCCN=Cc1ccccc1O.[Ni]
[3]
  T/C: 133 % of control
[8]
  survivor count: 4 of 6
[4]
  survivor count: 2 of 4

## NC(=O)C(=O)N/N=C/c1ccc2c(c1)CCC2
dose: 100.0 mg/kg/injection, schedule: Q04DX003 (ip), vehicle: saline with Tween-80
  survivor count: 6 of 6
dose: 200.0 mg/kg/injection, schedule: Q04DX003 (ip), vehicle: saline with Tween-80
  survivor count: 6 of 6
[11]
  survivor count: 6 of 6

## C=CC[As](=O)(O)O
[5]
  survivor count: 1 of 6
[6]
  survivor count: 1 of 6
[7]
  survivor count: 0 of 6

## CN(C)[C@@H]1C(=O)C(C(=O)NCNC(CO)(CO)CO)=C(O)[C@@]2(O)C(=O)C3=C(O)c4c(O)cccc4[C@@](C)(O)[C@H]3C[C@@H]12
dose: 56.0 mg/kg/injection, schedule: Q01DX Z (ip), vehicle: saline
  survivor count: 6 of 6
[13]
  T/C: 125 and 128 % of control [4 of 6 alive]
dose: 240.0 mg/kg/injection, schedule: Q01DX Z (ip), vehicle: saline
  survivor count: 4 of 6
[14]
  survivor count: 2 of 6
dose: 448.0 mg/kg/injection, schedule: Q01DX Z (ip), vehicle: saline
  survivor count: 0 of 6
dose: 480.0 mg/kg/injection, schedule: Q01DX Z (ip), vehicle: saline
  survivor count: 0 of 6
dose: 960.0 mg/kg/injection, schedule: Q01DX Z (ip), vehicle: saline
  survivor count: 0 of 6

## CCCCC(CCCCCC(CCCC)NCc1ccc2c(c1)OCO2)NCc1ccc2c(c1)OCO2 (stereo unspecified)
dose: 100.0 mg/kg/injection, schedule: Q01DX009 (ip), vehicle: Klucel (hydroxypropylcellulose) (HPC)
  survivor count: 0 of 6
dose: 200.0 mg/kg/injection, schedule: Q01DX009 (ip), vehicle: Klucel (hydroxypropylcellulose) (HPC)
  survivor count: 0 of 6
[9]
  survivor count: 0 of 6
